Laboratory results reported in PMC10273338.
Results are given in words; binding and its absence hold for the method and conditions named. Some binding calls cover weakened binding; strength is not graded here. One block for each binder: values may come before it.

By UniProt entry, the sequences of proteins in these tests, tags left out.
UniProt O95817: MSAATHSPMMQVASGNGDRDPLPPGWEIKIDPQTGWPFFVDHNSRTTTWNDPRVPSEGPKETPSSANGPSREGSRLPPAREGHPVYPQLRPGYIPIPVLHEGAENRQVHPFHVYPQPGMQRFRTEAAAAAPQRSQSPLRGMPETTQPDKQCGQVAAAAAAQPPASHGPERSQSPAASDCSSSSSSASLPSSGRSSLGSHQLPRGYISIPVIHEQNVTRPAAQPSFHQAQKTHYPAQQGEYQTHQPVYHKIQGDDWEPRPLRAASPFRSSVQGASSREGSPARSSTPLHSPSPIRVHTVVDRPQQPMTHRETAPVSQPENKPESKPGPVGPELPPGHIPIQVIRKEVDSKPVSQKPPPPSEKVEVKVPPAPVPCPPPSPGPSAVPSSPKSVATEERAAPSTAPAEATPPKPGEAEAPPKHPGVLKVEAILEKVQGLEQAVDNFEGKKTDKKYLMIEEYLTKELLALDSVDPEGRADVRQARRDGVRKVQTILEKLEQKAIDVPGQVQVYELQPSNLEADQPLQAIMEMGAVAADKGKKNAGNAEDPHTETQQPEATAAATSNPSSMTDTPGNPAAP

How the values were obtained:
[1] = target: T1, HspB8, Q9UJY1; experiment: solubility assay (centrifugation, SDS-PAGE) + AFM + thioflavin T fluorescence; protein alone, 20 uM (ThT: different concentrations) in PBS at 37°C with protease inhibitors, 0-72 h; self-assembly of HspB8 concentration-dependent with a lower limit of about 5 uM; both purified; details: remark: other sources report otherwise
T1 chain: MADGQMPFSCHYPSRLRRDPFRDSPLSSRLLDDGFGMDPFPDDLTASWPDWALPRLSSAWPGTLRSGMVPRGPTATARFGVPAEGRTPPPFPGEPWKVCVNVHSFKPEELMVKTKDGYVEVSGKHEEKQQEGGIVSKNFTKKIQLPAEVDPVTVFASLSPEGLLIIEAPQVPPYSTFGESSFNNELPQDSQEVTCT

[2] = target: BAG3 (Bcl-2 associated athanogene protein 3) (human) (UniProt O95817); experiment: SEC; purified proteins mixed at BAG3:HspB8 1:2, 30 min at 37°C, then SEC; peaks probed by western blot with anti-BAG3 and anti-HspB8 and by FTIR; both purified

binding [1]: binds
B1: HspB8, Q9UJY1 1-196 (natural protein)
chain: T1 chain

binding [2]: binds
B2: HspB8 (protein, UniProt Q9UJY1 1-196)
chain: T1 chain
